The text below walks through data of article PMC7192421.

By UniProt entry, the sequences of proteins in these tests, tags left out.
UniProt P61586: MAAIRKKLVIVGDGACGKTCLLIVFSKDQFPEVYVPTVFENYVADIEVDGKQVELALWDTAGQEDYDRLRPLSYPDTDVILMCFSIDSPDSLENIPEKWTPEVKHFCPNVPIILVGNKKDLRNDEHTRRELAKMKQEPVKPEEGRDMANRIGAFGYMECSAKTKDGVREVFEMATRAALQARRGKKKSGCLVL

No constants are given. Whether binding was seen depends on the method and setting. Binding seen in cells or lysates may run through a third protein. Some entries that bind do so weakly or less than the wild type. Tags and fused reporters may be left off the sequences shown.

The assay deals with GST-RhoA (UniProt P61586). Nature of the assay: pull-down; GST-RhoA or GST as bait (seen by Coomassie staining); Myc-tagged Daam1 proteins made by in vitro transcription/translation, detected with anti-Myc antibody; done as in ref. 46; only the target purified.

B1: Daam1 Δ (mouse Daam1 a.a. 1-148, Myc-tagged) (domain or fragment, UniProt Q8BPM0 1-148)
chain: MAPRKRGGRGISFIFCCFRNNDHPEITYRLRNDSNFALQTMEPALPMPPVEELDVMFSELVDELDLTDKHREAMFALPAEKKWQIYCSKKKDQEENKGATSWPEFYIDQLNSMAARKSLLALEKEEEEERSKTIESLKTALRTKPMRF
In the case of B1, the binding result was “binds”.
